At least one compound was matched to its structure with a doubt left.
Experiments:
[1] = target: T1, α2β3γ2 benzodiazepine receptor GABA(A) isoform (UniProt P18507+P47869); test: Radioligand competition binding, α2β3γ2 BzR/GABA(A) isoform; set-up: species or system human and rat; conditions: Table I; means of two determinations; read-out: Ki α2
T1 sequence (P18507 1-475): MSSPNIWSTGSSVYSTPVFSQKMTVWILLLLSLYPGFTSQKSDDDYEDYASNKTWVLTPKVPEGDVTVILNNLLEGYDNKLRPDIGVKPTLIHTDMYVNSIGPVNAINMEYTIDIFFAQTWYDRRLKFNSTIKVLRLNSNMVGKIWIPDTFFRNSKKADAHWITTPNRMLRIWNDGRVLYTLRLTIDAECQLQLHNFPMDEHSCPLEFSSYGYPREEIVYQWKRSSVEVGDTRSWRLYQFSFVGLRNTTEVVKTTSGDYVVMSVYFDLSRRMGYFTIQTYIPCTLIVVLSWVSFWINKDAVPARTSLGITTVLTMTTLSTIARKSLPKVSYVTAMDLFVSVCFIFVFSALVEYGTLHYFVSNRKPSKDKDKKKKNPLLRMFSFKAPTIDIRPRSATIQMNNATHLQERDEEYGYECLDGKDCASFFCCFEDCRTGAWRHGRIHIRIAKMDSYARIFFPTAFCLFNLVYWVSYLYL
T1 sequence (P47869 1-451): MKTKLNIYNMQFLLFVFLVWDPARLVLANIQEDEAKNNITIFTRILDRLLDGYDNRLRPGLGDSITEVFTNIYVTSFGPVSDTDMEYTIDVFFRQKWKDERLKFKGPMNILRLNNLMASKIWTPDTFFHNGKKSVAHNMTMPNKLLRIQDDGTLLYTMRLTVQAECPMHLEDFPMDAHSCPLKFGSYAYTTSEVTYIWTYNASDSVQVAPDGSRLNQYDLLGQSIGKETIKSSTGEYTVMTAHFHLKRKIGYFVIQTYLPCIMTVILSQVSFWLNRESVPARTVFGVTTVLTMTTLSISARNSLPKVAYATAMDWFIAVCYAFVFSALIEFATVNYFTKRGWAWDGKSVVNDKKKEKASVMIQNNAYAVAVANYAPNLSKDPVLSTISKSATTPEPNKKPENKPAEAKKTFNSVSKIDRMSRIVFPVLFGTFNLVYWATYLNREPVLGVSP
Protocol: (§1) The affinity of all ligands at the 6 major recombinant GABAA/BzR subtypes was measured by competition for [^3H]Ro15-1788 binding to HEK-T cells expressing both human and rat GABAA/Bz receptors of composition α1β2γ2 (α1), α2β2γ2 (α2), α3β2γ2 (α3), α4β2γ2 (α4), α5β2γ2 (α5) and α6β2γ2 (α6). It is well known that the β2 and β3 subunits can be interchanged with no effect on Bz ligand affinity or efficacy. […] These studies are similar to those performed in the laboratory of Bryan Roth who has already expressed the receptors employing the work of Kucken et. al. and Gray et. al.
(§2) In brief, for membrane preparations, the cells were scraped on to the ice and diluted into 5 mL of phosphate buffered saline (pH=7.40) and cells pelleted by centrifugation for 5 min. at 4° C. The pellet was resuspended in 1 mL of 50 mM Tris-acetate buffer (pH 7.4) and centrifuged at 18,000 g for 20 min. […] Each pellet were diluted to 6 mL and then 100 μL of membranes were incubated with approximately 1 nM final concentration of [^3H]Ro 15-1788 in a total volume of 250 μL together with serial dilutions of test compound for 90 min. on ice. The membranes were harvested in polyethyleneimine-pretreated Whatman GF/C filters and after drying and addition of scintillation cocktail, counted in a scintillation counter. […]

[2] = target: T2, α1β3γ2 benzodiazepine receptor GABA(A) isoform (UniProt P14867+P18507); test: Radioligand competition binding, α1β3γ2 BzR/GABA(A) isoform; set-up: Ki α1; means of two determinations; Ki α1; α1; species or system human and rat; conditions: Table I; means of two determinations; read-out: Ki α1
T2 sequence (P14867 1-456): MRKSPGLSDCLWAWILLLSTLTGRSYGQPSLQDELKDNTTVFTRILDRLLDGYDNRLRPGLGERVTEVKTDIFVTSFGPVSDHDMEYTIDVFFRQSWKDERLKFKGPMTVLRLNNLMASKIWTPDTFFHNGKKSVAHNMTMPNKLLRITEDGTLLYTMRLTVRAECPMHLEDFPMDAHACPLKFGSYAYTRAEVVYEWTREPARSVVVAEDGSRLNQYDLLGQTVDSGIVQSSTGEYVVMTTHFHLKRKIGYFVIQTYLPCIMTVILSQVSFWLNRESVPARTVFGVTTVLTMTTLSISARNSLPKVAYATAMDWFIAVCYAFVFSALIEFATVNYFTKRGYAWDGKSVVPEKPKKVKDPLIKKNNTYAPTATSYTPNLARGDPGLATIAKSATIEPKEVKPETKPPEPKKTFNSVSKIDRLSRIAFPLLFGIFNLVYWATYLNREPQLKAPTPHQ
T2 sequence (P18507 1-475): T1 sequence (P18507 1-475)
Protocol: as §1, §2

[3] = target: T3, α3β3γ2 benzodiazepine receptor GABA(A) isoform (UniProt P18507+P34903); test: Radioligand competition binding, α3β3γ2 BzR/GABA(A) isoform; set-up: species or system human and rat; conditions: Table I; means of two determinations; read-out: Ki α3
T3 sequence (P18507 1-475): T1 sequence (P18507 1-475)
T3 sequence (P34903 1-492): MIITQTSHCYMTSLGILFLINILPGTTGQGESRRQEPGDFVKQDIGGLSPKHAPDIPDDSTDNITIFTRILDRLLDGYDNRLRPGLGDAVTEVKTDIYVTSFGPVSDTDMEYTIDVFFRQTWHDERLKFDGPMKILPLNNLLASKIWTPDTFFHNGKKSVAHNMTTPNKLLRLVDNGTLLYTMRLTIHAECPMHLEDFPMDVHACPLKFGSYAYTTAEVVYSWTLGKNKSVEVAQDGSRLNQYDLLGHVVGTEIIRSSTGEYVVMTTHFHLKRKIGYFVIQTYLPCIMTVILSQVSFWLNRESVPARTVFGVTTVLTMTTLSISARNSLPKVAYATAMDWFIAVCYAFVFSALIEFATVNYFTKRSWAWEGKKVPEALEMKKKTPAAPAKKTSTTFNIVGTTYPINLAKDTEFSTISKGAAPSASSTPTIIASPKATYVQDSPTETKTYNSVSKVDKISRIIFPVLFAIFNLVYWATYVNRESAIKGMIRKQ
Protocol: as §1, §2

[4] = target: α6β3γ2 benzodiazepine receptor GABA(A) isoform (UniProt P18507+Q16445); test: Radioligand competition binding, α6β3γ2 BzR/GABA(A) isoform; set-up: species or system human and rat; conditions: Table I; means of two determinations; read-out: Ki α6
Protocol: as §1, §2

Measured: Ki

C#CC#Cc1ccc2c(c1)C(=O)N1CCC[C@H]1c1c(C(=O)OCC)ncn1-2 [Ligand 14]
> 1 µM: all assays above

— US7595395B2, “Gabaergic agents to treat memory deficits” (priority 2005, dated 2009)
